Results are given in words; binding and its absence hold for the method and conditions named. In cells and extracts the contact can be indirect. Some entries that bind do so weakly or less than the wild type.
How the values were obtained:
[1] = target: Toll-like receptor 4 (mouse (endogenous in primary cultured microglia)) (UniProt Q9QUK6); experiment: co-IP; 500-600 ug total protein of cultured microglia in IP lysis buffer, incubated with 2 ug rabbit anti-TRPV1, mouse anti-TLR4 or control IgG and protein A/G agarose beads overnight at 4°C; washed three times; western blot
[2] = target: Transient receptor potential vanilloid type 1 (mouse (endogenous in primary cultured microglia)) (UniProt Q704Y3); experiment: as above

Amino acid sequences for entries named in this document (tags omitted). Residues count along the entry.
UniProt Q9QUK6, residues 26-835: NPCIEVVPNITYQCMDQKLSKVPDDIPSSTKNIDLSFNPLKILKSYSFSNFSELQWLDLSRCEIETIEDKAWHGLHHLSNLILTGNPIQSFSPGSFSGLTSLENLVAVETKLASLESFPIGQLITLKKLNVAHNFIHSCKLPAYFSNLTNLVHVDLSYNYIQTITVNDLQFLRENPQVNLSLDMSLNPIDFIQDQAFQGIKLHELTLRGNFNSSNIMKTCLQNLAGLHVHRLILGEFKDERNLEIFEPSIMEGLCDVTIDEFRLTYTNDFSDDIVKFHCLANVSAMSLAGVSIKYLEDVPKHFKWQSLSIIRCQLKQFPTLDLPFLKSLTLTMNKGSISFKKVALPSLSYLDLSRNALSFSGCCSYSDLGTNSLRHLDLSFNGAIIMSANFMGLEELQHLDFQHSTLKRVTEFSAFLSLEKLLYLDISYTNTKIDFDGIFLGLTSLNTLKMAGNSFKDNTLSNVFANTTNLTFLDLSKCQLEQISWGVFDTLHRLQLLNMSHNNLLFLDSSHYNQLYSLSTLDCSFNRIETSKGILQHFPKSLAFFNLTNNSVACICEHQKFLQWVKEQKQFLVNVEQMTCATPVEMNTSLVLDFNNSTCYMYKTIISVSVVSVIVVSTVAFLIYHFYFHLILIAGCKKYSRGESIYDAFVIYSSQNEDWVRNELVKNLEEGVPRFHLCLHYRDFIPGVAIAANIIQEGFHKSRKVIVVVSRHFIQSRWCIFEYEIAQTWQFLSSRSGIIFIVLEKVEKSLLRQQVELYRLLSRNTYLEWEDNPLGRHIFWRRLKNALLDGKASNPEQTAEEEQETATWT
UniProt Q704Y3: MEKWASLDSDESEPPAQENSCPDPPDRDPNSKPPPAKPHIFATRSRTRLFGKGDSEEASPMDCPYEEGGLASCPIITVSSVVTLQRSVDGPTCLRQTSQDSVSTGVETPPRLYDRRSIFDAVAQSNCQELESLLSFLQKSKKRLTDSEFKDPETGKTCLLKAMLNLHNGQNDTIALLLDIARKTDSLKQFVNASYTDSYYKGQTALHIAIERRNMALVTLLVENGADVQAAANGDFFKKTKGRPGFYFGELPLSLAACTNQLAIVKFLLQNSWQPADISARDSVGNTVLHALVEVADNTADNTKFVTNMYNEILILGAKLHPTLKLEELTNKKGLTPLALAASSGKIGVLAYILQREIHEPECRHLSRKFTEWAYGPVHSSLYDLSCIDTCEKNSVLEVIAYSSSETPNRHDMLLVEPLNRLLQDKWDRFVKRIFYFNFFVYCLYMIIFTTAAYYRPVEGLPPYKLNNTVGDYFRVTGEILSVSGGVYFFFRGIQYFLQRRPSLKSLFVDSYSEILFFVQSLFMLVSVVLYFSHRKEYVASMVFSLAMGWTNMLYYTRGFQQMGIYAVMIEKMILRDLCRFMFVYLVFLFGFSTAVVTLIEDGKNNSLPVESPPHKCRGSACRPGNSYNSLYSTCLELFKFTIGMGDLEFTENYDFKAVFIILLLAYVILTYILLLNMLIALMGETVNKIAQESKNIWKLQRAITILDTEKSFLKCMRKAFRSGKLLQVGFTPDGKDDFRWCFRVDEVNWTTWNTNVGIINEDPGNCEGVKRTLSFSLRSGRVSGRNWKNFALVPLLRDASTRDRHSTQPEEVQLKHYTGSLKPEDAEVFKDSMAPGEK

binding [1] | binding [2] | Substance
binds | – | Transient receptor potential vanilloid type 1 (from UniProt Q704Y3 1-839)
– | binds | Toll-like receptor 4 (from UniProt Q9QUK6 26-835)

Source: paper PMC6798794
